From article PMC7819943, “Rice protein-binding microarrays: a tool to detect cis-acting elements near promoter regions in rice” come the findings set out here.

This is one part of the list.

The target in the experiment is T1, OsSMF1 (Oryza sativa, UniProt Q6ZLB0 1-436).
T1 sequence: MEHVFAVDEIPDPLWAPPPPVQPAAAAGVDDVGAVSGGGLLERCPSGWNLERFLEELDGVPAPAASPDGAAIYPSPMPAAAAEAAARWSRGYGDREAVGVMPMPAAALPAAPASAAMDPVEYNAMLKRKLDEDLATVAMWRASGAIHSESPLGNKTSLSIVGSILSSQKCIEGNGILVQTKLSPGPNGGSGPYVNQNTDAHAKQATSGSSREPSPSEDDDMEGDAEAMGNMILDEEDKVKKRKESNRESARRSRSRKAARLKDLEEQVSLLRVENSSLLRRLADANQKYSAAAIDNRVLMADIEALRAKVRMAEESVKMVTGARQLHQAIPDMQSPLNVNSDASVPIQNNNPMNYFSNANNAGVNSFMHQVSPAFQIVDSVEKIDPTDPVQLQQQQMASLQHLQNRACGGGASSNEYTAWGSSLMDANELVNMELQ
The experiment in a line: protein-binding microarray (RPBM); PBS, 2% BSA, 51.3 ng/ul salmon testes DNA, 50 uM zinc acetate, 200 nM TF, 25 C, 1 h; high values mean tight binding. To be noted: protein: recombinant; tags: N-terminal polyhistidine and DsRed monomer fusion (pET32a); chain copies: 2; label: CyDye5-dUTP incorporated in the synthesized complementary strand; 3' TTTTT single-stranded linker to array surface; dsDNA, one strand shown. Summed up: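 Polyhistidine-tagged DsRed fusions of transcription factors, joined at the N-terminus, were expressed in E. coli BL21-CodonPlus and isolated on Ni–NTA. They were incubated at 200 nM for 1 h at 25 °C on a custom Agilent array, double-stranded and BSA-blocked, in PBS with 2% BSA, salmon testes DNA and 50 µM zinc acetate. The binding signal is per-feature fluorescence intensity (arbitrary units) read on an Axon 4000B scanner after washing.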
As to “GTCCAAACTAACCCCACCAAAGCTAAAACGTCATTTATTTCGGAGTCACCTAGTGCAG”, the binding signal was 3390 fluorescence intensity (a.u.).
For the sequence “TGACAGCTCAATGCAAAACTATTGTGTTCGAACCATCAGACGGAGTCACCTAGTGCAG”, the binding signal was 23300 fluorescence intensity (a.u.).
With “TGATGCTACAATAAACATTTACTAATGACGGATTAATTAGCGGAGTCACCTAGTGCAG” the figure was 3430 fluorescence intensity (a.u.).
As to “GCCGCCCTATACGTGCGCCACGAAACGCAAGGCAGACGTCCGGAGTCACCTAGTGCAG”, the binding signal was 3660 fluorescence intensity (a.u.).
Take “ATCTGGGCTTTGAGCAGACACACTAACGTGAAACTTAACTCGGAGTCACCTAGTGCAG”: the binding signal is 38800 fluorescence intensity (a.u.).
With “GCGCTCGTCGACGTGGACAACCGGGCGTCGCAGCGCGTGGCGGAGTCACCTAGTGCAG” the figure was 6920 fluorescence intensity (a.u.).
Consider “CTTGTGGCCCATTAATGGCTCGCGTCGGCCTAATTTTGTGCGGAGTCACCTAGTGCAG”, for which the binding signal is 4450 fluorescence intensity (a.u.).
For “CTCGCTGTCTTTCTCTATCTAGCGGGTCGCGGTGAGTCGTCGGAGTCACCTAGTGCAG”, the binding signal was 3340 fluorescence intensity (a.u.).
Regarding “GGACGACGTGCGACTGTGACACTTCACCTGCAGATACATACGGAGTCACCTAGTGCAG”, the binding signal is 4080 fluorescence intensity (a.u.).
As to “AGTGTGTACGGCGATGAACAGTGTCATCAGAATCATCCGACGGAGTCACCTAGTGCAG”, the binding signal is 3140 fluorescence intensity (a.u.).
Turning to “TACTACTGATTTTCCCTTCGTCAAGCGACTCCAAAACGTGCGGAGTCACCTAGTGCAG”, the binding signal is 3320 fluorescence intensity (a.u.).
Regarding “TCAATGATATTTATGTGTGTGACATGTATGTCGAGTTCGTCGGAGTCACCTAGTGCAG”, the binding signal is 4360 fluorescence intensity (a.u.).
The same measure for “TCAGCTCAGCAAATTAGGATGTTTCATTAGTTAGAACAAACGGAGTCACCTAGTGCAG”: 51600 fluorescence intensity (a.u.).
The same measure for “TTGGACAAATCATTTGGCAAAATTTCAAAGTTTTGAATCTCGGAGTCACCTAGTGCAG”: 28600 fluorescence intensity (a.u.); for “ATGTCGGTCTGATGTATATGCTTCTATGTTTGAATTGTGTCGGAGTCACCTAGTGCAG”: 3270 fluorescence intensity (a.u.).
As for “AGCATCCGAGACGTGACGTCACGTCACCCCGCCTTTACTCCGGAGTCACCTAGTGCAG”, the binding signal is 28500 fluorescence intensity (a.u.).
For “GACCAGCGGTGGCCGGCGACGCCGCCACGGTGCTCGTCCCCGGAGTCACCTAGTGCAG”, the binding signal is 4530 fluorescence intensity (a.u.).
In the case of “ATCCACGCCGCCACCGGCGCCCCGACCTATCTCGCCCTCCCGGAGTCACCTAGTGCAG”, the binding signal is 3850 fluorescence intensity (a.u.).
Consider “TACGGTCTCGTCGGTATCATCGAATTCTGTTATTCCCTTTCGGAGTCACCTAGTGCAG”, for which the binding signal was 3200 fluorescence intensity (a.u.).
In the case of “GGAATGGATAGTGTTCTCGGAAGGAAATTGGTGCTGATGTCGGAGTCACCTAGTGCAG”, the binding signal is 45600 fluorescence intensity (a.u.).
Regarding “AACACTCTCAGTGAAAGGAAACATCACTAGCAACGTTGCACGGAGTCACCTAGTGCAG”, the binding signal is 3420 fluorescence intensity (a.u.).
In the case of “GTACGGTGTTTAACTTGCGTACTGTACAATTGTACATGTACGGAGTCACCTAGTGCAG”, the binding signal is 3160 fluorescence intensity (a.u.).
As for “CCTACAAGACACATCATCCAAAGATCAGCCTTGGAGTTCACGGAGTCACCTAGTGCAG”, the binding signal is 4160 fluorescence intensity (a.u.).
The same measure for “CGATTTGTGACCGGTCTGACACTGGTCATGTCGTCAGCAGCGGAGTCACCTAGTGCAG”: 7660 fluorescence intensity (a.u.); for “CTAGCTGTTGAGAATTTGTCCGATGTGTCTCCCTTGTTCCCGGAGTCACCTAGTGCAG”: 4700 fluorescence intensity (a.u.).
As for “GGGCAGCAAATTAAGTGCCGGCAATAAACTAATATAGCAGCGGAGTCACCTAGTGCAG”, the binding signal is 16400 fluorescence intensity (a.u.).
For the sequence “GTTGGTGGCGAGCGCGCGGCGGCCACGCACGTACGTGGCCCGGAGTCACCTAGTGCAG”, the binding signal is 4880 fluorescence intensity (a.u.).
As for “CTCTCCTCCATCCATGACGTCAGTTTGGCCACACCCAATGCGGAGTCACCTAGTGCAG”, the binding signal is 7680 fluorescence intensity (a.u.).
For the sequence “TAATGGCATCGTCCCTAGTAGGCTAGTACTATACATTGTGCGGAGTCACCTAGTGCAG”, the binding signal was 3280 fluorescence intensity (a.u.).
Regarding “AGCTCCAGCTCCACGCTGTGCCAAACAAGCCCTTAGCTTACGGAGTCACCTAGTGCAG”, the binding signal was 3390 fluorescence intensity (a.u.).
With “CATGATGTATGACCTTGTTACATCAGTATCTGTGGTATGGCGGAGTCACCTAGTGCAG” the figure was 4020 fluorescence intensity (a.u.); with “ATGGTGCCCGTGGCCGTGGTGTACGCAACTTGTCCGCAGCCGGAGTCACCTAGTGCAG”, 3260 fluorescence intensity (a.u.).
The same measure for “TCTCGCCGCCATTGTCACGTCTCACGTGCGCGCCACCACCCGGAGTCACCTAGTGCAG”: 3330 fluorescence intensity (a.u.).
With “AGGCAGCAATGGCGCCTCCTCCGAACACGTACTCGGAGTCCGGAGTCACCTAGTGCAG” the figure was 4390 fluorescence intensity (a.u.); with “CCCCACAGCACGTCACGTCACGCTCACGCCGTCAGCCCTGCGGAGTCACCTAGTGCAG”, 12000 fluorescence intensity (a.u.); with “TCCTGTTACAATCATCTGACTCTCTGTGATTGAAACCTTGCGGAGTCACCTAGTGCAG”, 4180 fluorescence intensity (a.u.).
As to “GGTTGATTGATCCGCCACGCAAGCTTTGCTACCTAACCATCGGAGTCACCTAGTGCAG”, the binding signal was 9840 fluorescence intensity (a.u.).
Consider “ATATAATGTTTTCAATAATGTTGTTTTCAAATGAAACAAGCGGAGTCACCTAGTGCAG”, for which the binding signal was 23600 fluorescence intensity (a.u.).
As to “ACTTCCCACGTGTCACCCTGACGTGCACTGCTGGCAGCTGCGGAGTCACCTAGTGCAG”, the binding signal is 30100 fluorescence intensity (a.u.).
Turning to “TAGTGATGGCCTCCTCTAGCTCGTGCGTCACTGATCTCCACGGAGTCACCTAGTGCAG”, the binding signal is 7120 fluorescence intensity (a.u.).
On to “AGGTTGGTGATTCAGAGATGTCGAGACGTGTGTTCTTTTGCGGAGTCACCTAGTGCAG”, for which the binding signal was 4270 fluorescence intensity (a.u.).
As for “TCAAAGCTTGAGCCACAGAAAATGCCACGGTGGATTGGATCGGAGTCACCTAGTGCAG”, the binding signal is 35400 fluorescence intensity (a.u.).
For “AAAGGAGAAGAAGGAAATATCATGATTCATGAACCCAACCCGGAGTCACCTAGTGCAG”, the binding signal was 3160 fluorescence intensity (a.u.).
As to “GTACTGACGTACTCCACTGAGTAGTGCGTAATTGCGTATGCGGAGTCACCTAGTGCAG”, the binding signal is 5980 fluorescence intensity (a.u.).
Consider “TTCCTGTCATCATGATGCACGCGTGCATTGCTATTTACTACGGAGTCACCTAGTGCAG”, for which the binding signal was 4280 fluorescence intensity (a.u.).
With “GGCTTAAGTCAAGCTAATTTTAGATATTTATTATTTTGTGCGGAGTCACCTAGTGCAG” the figure was 3900 fluorescence intensity (a.u.); with “CACCTGCTTAGGGGATGTTTGGATCAAGAACCACATCGGACGGAGTCACCTAGTGCAG”, 3380 fluorescence intensity (a.u.); with “ACATGAACTCTATCTGCAATATCTGTTCAGTGTTTCAGTGCGGAGTCACCTAGTGCAG”, 3670 fluorescence intensity (a.u.).
On to “AACCACCAACTTACTACTAGTACGCTGATGTATTGATGTACGGAGTCACCTAGTGCAG”, for which the binding signal was 4660 fluorescence intensity (a.u.).
“TGGTATTCTTACTTGTGAAGCTGGTTGTGTGTTGGAGAATCGGAGTCACCTAGTGCAG”: the binding signal is 3140 fluorescence intensity (a.u.).
With “TAAGTTAGATGACAGACATGTAATCTCGGCGTGGAAATCTCGGAGTCACCTAGTGCAG” the figure was 3150 fluorescence intensity (a.u.); with “GAACTATTTAATTGACTCTGCATGCCAGGTGTTGGGCCTCCGGAGTCACCTAGTGCAG”, 3190 fluorescence intensity (a.u.).
Consider “TGATGCAATTCTGTTCCTGTCATTGTCACTCCCCTGCAAACGGAGTCACCTAGTGCAG”, for which the binding signal is 4720 fluorescence intensity (a.u.).
With “CGTTTGAATTTTCTAACGAGCCGAGCTGGCATTTTAGCTCCGGAGTCACCTAGTGCAG” the figure was 5800 fluorescence intensity (a.u.).
